From ChEMBL document CHEMBL3044836, “Synthesis, antimicrobial and cytotoxic activities of novel 4-trifluoromethyl-(1,2,3)-thiadiazolo-5-carboxylic acid hydrazide Schiffs bases” (Med Chem Res, 2013)
≈ marks a conversion by molar mass, not a printed value.

Tested on: MDA-MB-231
Test: Cytotoxicity against Homo sapiens (human) MDA-MB-231 cells assessed as cell viability after 48 hr by MTT assay
Type: functional, cell-based
Conditions: MDA-MB-231, 48 h

**Q.** How did the IC50 turn out when COc1cccc2c1C(=O)c1c(O)c3c(c(O)c1C2=O)C[C@@](O)(C(=O)CO)C[C@@H]3O[C@H]1C[C@H](N)[C@H](O)[C@H](C)O1 [DOXORUBICIN] was run?
**A.** 1.81 µg/mL (≈ 3.33 µM)
